The assay addresses HA-RPA1 (UniProt P27694). Description: co-IP.

Amino acid sequences for entries named in this document (tags omitted).
UniProt P27694: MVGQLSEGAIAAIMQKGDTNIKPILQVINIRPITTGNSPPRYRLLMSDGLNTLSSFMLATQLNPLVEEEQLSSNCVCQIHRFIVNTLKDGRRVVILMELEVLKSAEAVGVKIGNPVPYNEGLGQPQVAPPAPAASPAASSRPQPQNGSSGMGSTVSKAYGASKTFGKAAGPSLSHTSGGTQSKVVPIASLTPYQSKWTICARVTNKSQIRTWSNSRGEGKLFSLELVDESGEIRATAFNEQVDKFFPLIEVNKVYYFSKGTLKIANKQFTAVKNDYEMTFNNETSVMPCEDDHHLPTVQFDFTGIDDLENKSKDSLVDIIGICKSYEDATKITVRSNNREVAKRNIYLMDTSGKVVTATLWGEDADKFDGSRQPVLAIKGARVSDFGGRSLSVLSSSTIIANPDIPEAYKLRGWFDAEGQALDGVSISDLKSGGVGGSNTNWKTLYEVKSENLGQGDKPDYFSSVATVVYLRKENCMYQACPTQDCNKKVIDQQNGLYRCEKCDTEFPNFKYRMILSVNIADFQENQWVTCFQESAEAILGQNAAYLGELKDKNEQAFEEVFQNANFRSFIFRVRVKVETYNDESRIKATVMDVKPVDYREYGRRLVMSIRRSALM

Results are given in words; binding and its absence hold for the method and conditions named. In cells and extracts the contact can be indirect. Some entries that bind do so weakly or less than the wild type.

We go through one molecule from article doi:10.1101/751974.

B1: MCM8IP, endogenous (protein, UniProt Q8N3J3-4 1-646)
chain: MACSLQKLFAVEEEFEDEDFLSAVEDAENRFTGSLPVNAGRLRPVSSRPQETVQAQSSRLLLLHPTAPSEALGLPDLDLCLPASSTPSADSRPSCIGAAPLRPVSTSSSWIGNQRRVTVTEVLRETARPQSSALHPLLTFESQQQQVGGFEGPEQDEFDKVLASMELEEPGMELECGVSSEAIPILPAQQREGSVLAKKARVVDLSGSCQKGPVPAIHKAGIMSAQDESLDPVIQCRTPRPPLRPGAVGHLPVPTALTVPTQQLHWEVCPQRSPVQALQPLQAARGTIQSSPQNRFPCQPFQSPSSWLSGKAHLPRPRTPNSSCSTPSRTSSGLFPRIPLQPQAPVSSIGSPVGTPKGPQGALQTPIVTNHLVQLVTAASRTPQQPTHPSTRAKTRRFPGPAGILPHQQSGRSLEDIMVSAPQTPTHGALAKFQTEIVASSQASVEEDFGRGPWLTMKSTLGLDERDPSCFLCTYSIVMVLRKAALKQLPRNKVPNMAVMIKSLTRSTMDASVVFKDPTGEMQGTVHRLLLETCQNELKPGSVLLLKQIGVFSPSLRNHYLNVTPNNLVHIYSPDSGDGSFLKPSQPFPKDSGSFQHDVAAKPEEGFRTAQNLEAEASPEEELPEADDLDGLLSELPEDFFCGTSS
With B1, the binding entry is “binds”.
